Results: article PMC4707779
No constants are given. Whether binding was seen depends on the method and setting. Binding seen in cells or lysates may run through a third protein. Some results given as binding are weak or reduced against the parent protein; the word gives no strength. For part of these data: Sequences can lack the tags named with a protein. Each block holds one molecule with its values, some of them ahead of it.

Amino acid sequences for entries named in this document (tags omitted).
UniProt Q13616: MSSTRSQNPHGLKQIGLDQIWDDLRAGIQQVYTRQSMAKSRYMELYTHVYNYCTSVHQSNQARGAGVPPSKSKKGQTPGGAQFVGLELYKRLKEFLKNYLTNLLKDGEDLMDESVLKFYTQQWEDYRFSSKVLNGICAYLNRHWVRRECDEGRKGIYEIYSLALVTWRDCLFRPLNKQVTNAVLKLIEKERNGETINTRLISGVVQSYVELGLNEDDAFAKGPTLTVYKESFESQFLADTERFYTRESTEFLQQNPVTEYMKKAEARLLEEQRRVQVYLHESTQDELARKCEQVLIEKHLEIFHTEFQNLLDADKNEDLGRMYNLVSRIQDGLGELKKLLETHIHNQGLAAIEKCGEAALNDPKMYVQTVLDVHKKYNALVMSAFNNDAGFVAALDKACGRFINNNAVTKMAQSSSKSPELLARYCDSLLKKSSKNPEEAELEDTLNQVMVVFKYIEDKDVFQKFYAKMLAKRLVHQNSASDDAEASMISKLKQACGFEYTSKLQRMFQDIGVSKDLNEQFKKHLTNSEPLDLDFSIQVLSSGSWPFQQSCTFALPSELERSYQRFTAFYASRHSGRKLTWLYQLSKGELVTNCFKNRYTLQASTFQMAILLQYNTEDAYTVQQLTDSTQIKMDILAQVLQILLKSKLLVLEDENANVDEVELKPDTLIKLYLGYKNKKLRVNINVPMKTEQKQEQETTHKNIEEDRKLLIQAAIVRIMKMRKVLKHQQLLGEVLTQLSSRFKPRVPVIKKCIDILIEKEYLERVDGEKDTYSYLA
UniProt P63208: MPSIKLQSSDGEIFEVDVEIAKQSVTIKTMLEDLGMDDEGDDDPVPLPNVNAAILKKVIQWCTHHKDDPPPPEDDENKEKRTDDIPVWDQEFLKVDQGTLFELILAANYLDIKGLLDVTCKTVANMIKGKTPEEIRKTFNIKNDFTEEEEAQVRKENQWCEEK

Assays:
[1] = target: T1, WT FBXO32 carrying a Flag epitope (human) (UniProt Q969P5); test: co-IP; HEK293 cells co-transfected with Flag-FBXO32 (WT or G243R), GFP-SKP1, myc-CUL1 and HA-ROC1; 400-700 ug of total cell lysate on Flag resins, 2 h at 4 °C; immunoblotting
T1 sequence: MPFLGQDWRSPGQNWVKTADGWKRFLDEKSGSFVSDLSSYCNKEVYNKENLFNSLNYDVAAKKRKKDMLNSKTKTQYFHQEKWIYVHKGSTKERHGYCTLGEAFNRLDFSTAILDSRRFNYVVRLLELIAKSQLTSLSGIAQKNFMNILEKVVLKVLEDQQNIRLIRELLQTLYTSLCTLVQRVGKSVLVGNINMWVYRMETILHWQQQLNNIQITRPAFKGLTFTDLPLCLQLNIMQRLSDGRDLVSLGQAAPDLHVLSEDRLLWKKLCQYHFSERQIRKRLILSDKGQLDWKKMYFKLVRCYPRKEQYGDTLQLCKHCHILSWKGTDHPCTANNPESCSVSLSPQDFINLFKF

[2] = target: T2, FBXO32 of control hearts and hearts of patients with idiopathic dilated cardiomyopathy (human (endogenous in heart tissue)) (UniProt Q969P5); test: co-IP; protein extracts of human left ventricle (control, IDC, patients IV.5 and IV.7); immunoprecipitation with primary antibody or control IgG, immunoblotting; the precipitating antibody is not named
T2 sequence: T1 sequence

myc-CUL1 = myc-CUL1 (UniProt Q13616); test: co-IP; HEK293 cells co-transfected with WT or mutant FBXO32 and CUL1, ROC1 and SKP1; CUL1 absorbed on c-Myc-beads, 2 h at 4 °C; immunoblotting

- binding [1]: binds
Molecule: GFP-SKP1 (from UniProt P63208 1-163)

Molecule: SKP1 of human heart tissue (from UniProt P63208 1-163)
- binding [2]: binds

- binding (myc-CUL1): binds
B1: WT FBXO32 carrying a Flag epitope (protein, UniProt Q969P5-1 1-355)
chain: T1 sequence
